# Data reported in PubChem BioAssay AID504467 (National Center for Advancing Translational Sciences (NCATS), 2011).
# In all, about 330,000 compounds went through this assay and about 7,700 (2.3%) were called active. The inconclusive results got no clear call from the source; some entries with a clear call stand among them for comparison. Calls follow the shape of the dose curve; as a rule, active = well fitted inhibition curve with a large enough effect; inconclusive = small, poorly fitted or top-dose-only effect, or effect the other way; inactive = flat fitted curve, though single readings scatter. Where the call is inconclusive, the potency comes from a doubtful curve fit.
# Experiment: qHTS screen for small molecules that inhibit ELG1-dependent DNA repair in human embryonic kidney (HEK293T) cells expressing luciferase-tagged ELG1; also: nearly all actives have a fitted effect of over 55% in size
# Conditions: HEK293T ELG1-luciferase reporter, luminescence, 16 h, DNA damage induced by 5-fluorouridine; activity change, negative = inhibition: at 46.1 µM (top of the series)
# How it was run: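 Overnight (16 hr) co-exposure of 2,000 cells/well to 5-fluorouridine and compound at 37 °C preceded detection. Luciferase was quantified via ONE-Glo luminescence; loss of signal denotes inhibition.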
# % is scaled to controls: 0 for no effect and ±100 for the full control effect; potency is read from the fitted curve at half-maximal effect.
SMILES,"activity change, negative = inhibition",Potency
Nc1cc(OC(=O)c2cccs2)nn1S(=O)(=O)c1ccccc1,inactive: 15.1%,–
N#C/C(=N\Nc1cccc(F)c1)C(=N)N1CCCCCC1,–,"inconclusive: 4.11 µM [activator, full curve]"
O=C(CSc1ccccc1)NCc1ccc(F)cc1,–,"inconclusive: 20.6 µM [activator, partial curve]"
Cc1ccc(O)c(C2=Nc3ccccc3C2(C)C)c1,–,"inconclusive: 16.4 µM [activator, partial curve]"
Cc1ccc(CNC(=O)Nc2ccc(Cl)cc2)cc1,–,"inconclusive: 20.6 µM [activator, partial curve]"
CCCCC1(C)Nc2ccccc2-c2nc3ccccc3n21 (centres undefined),–,"inconclusive: 23.1 µM [activator, partial curve]"
CN(C)S(=O)(=O)N1CCC(Oc2ccc(C(=O)NCc3cnn(C)c3)cc2)CC1,–,"inconclusive: 29.1 µM [inhibitor, single point]"
Cc1ccc(NS(=O)(=O)c2ccc(N/N=C/c3ccncc3)c([N+](=O)[O-])c2)c(C)c1,inactive: -4.75%,–
CCn1c(SCC(=O)O)nnc1C1CCCCC1,inactive: 7.28%,–
CCN(CC(=O)Nc1cc(Cl)ccc1C)C(=O)c1ccc2c(c1)NC(=O)C(C)S2 (centres undefined),–,"inconclusive: 25.9 µM [inhibitor, single point]"
COc1cc(/C=C2\NC(=S)NC2=O)ccc1OCc1cccc(C(=O)O)c1,–,"inconclusive: 13 µM [activator, partial curve]"
Cc1nn(CC(=O)NCCc2ccccc2)c(C)c1[N+](=O)[O-],–,"inconclusive: 16.4 µM [activator, single point]"
CCc1ccc(C(=O)NNc2ccc(F)cc2F)cc1,–,"inconclusive: 7.3 µM [inhibitor, partial curve]"
O=S(=O)(NC1CCCCC1N1CCN(c2ccc(F)cc2)CC1)c1ccccc1 (centres undefined),–,"inconclusive: 29.1 µM [inhibitor, partial curve, poor fit]"
COc1ccc(-c2cn(Cc3ccc(C)cc3)nn2)cc1,–,"inconclusive: 23.1 µM [activator, partial curve]"
CCc1ccc(OCC(=O)Nc2nnc(C3CCCC3)s2)cc1,–,"inconclusive: 29.1 µM [activator, partial curve, poor fit]"
CC(C)CN(C(=O)CCC(=O)OCc1ccc(Cl)cc1Cl)c1c(N)n(CC(C)C)c(=O)[nH]c1=O,inactive: 1.58%,–
COc1ccccc1NS(=O)(=O)c1ccc(C(=O)NCC(c2ccc(F)cc2)N2CCOCC2)cc1 (centres undefined),inactive: -6.2%,–
CCOCCn1c(-c2ccccc2)nc2ccccc21,–,"inconclusive: 32.6 µM [inhibitor, single point]"
CCOC(=O)C1CCN(Cc2nc3ccccc3c(=O)n2-c2ccc(OCC)cc2)CC1,–,"inconclusive: 9.2 µM [inhibitor, partial curve]"
CN1CCC(=NNC(=O)c2cn(-c3ccccc3)nc2-c2ccccc2)CC1,–,"inconclusive: 10.3 µM [activator, partial curve, poor fit]"
CN(C)c1ccc(/C=C/C(=O)c2c(O)c3ccccc3oc2=O)cc1,–,"inconclusive: 10.3 µM [activator, partial curve]"

SMILES,"activity change, negative = inhibition",Potency
Fc1ccccc1/C=N/N1CCN(Cc2ccccc2Cl)CC1,–,"inconclusive: 2.82 µM [activator, single point]"
COc1ccc(Cl)cc1Nc1nc(NCCO)nc(N2CCCC2)n1,–,"inconclusive: 7.31 µM [inhibitor, partial curve, poor fit]"
CCOc1ccc(C(=O)Nc2ccc(-c3cc4ccccc4oc3=O)c(C)c2)cc1[N+](=O)[O-],–,"inconclusive: 9.2 µM [inhibitor, partial curve]"
CCOc1ccc(S(=O)(=O)N2c3ccccc3CC2C)cc1 (centres undefined),–,"inconclusive: 0.82 µM [inhibitor, full curve]"
Cc1ccc(-c2nnc(SCC(=O)Nc3ccccc3F)o2)cc1,–,"inconclusive: 0.206 µM [activator, full curve, poor fit]"
COc1ccccc1NC(=O)C1CC(O)CN1C(=O)Oc1ccccc1 (centres undefined),inactive: 1.28%,–
CCOC(=O)Cc1csc(NC(=S)NC(=O)CC(C)C)n1,–,"inconclusive: 29.1 µM [inhibitor, single point]"
Cn1nnnc1Sc1ncnc2scc(-c3ccc(C(F)(F)F)cc3)c12,–,active: 6.51 µM
O=c1cc(-c2ccccc2)cc(-c2ccccc2)n1O,–,"inconclusive: 20.6 µM [inhibitor, single point]"
CC(C)NC(=O)c1sc2nc(-c3cccs3)cc(-c3cccs3)c2c1N,inactive: 8.06%,–
C(=N\Nc1nc2ccccc2s1)/c1cccs1,–,"inconclusive: 4.61 µM [activator, partial curve]"
CN1C2CCC1/C(=C\c1ccccc1)C(=O)/C2=C\c1ccccc1,–,"inconclusive: 29.1 µM [inhibitor, single point]"
CC1(C(=O)NCc2ccc(F)cc2)Oc2ccccc2NC1=O (centres undefined),–,"inconclusive: 1.3 µM [inhibitor, single point]"
O=C(COC(=O)c1ccncc1)Nc1cccc2ccccc12,inactive: 0%,–
COc1ccc(Oc2coc3cc(OC(=O)/C=C/c4ccc(F)cc4)ccc3c2=O)cc1,–,"inconclusive: 16.4 µM [activator, single point]"
COc1ccc([C@@H]2[C@@H]3C(=O)N(C(C)(C)C)C(=O)[C@@H]3[C@]3(C)C(=O)N(c4cccc(Br)c4)C(=O)N23)cc1,inactive: -25.4%,–
Cc1ccc2ncnc(Nc3cccc(C(=O)O)c3)c2c1,–,"inconclusive: 29.1 µM [activator, single point]"
Cc1ccc(C(=O)NCN2CCN(c3ccccc3)CC2)cc1,inactive: 13.6%,–
O=C(CSc1ccccc1C(=O)O)NC1CCCCCCC1,–,"inconclusive: 20.6 µM [activator, partial curve, poor fit]"
CC(Sc1nncs1)C(=O)Nc1ccc(Cl)cn1 (centres undefined),inactive: 5.76%,–
CC(C)CN(C(=O)c1ccc(S(=O)(=O)N2CCOCC2)cc1)C1CCS(=O)(=O)C1 (centres undefined),inactive: 15.6%,–
Cc1cc(=O)oc2cc(NC(=O)C3COc4ccccc4O3)ccc12 (centres undefined),–,"inconclusive: 16.4 µM [activator, partial curve, poor fit]"

# Look-ups from the entries so far:
# Potency with Cc1cc(=O)oc2cc(NC(=O)C3COc4ccccc4O3)ccc12 (centres undefined) is entered as inconclusive: 16.4 µM [activator, partial curve, poor fit]
# Potency with COc1ccc(Oc2coc3cc(OC(=O)/C=C/c4ccc(F)cc4)ccc3c2=O)cc1 is entered as inconclusive: 16.4 µM [activator, single point]
